From PubChem BioAssay AID2685 (National Center for Advancing Translational Sciences (NCATS), 2010)
This is one part of the list. The main result of the screen is listed elsewhere. These columns were measured beside it and carry no call. Compounds called inactive in the main read-out are mostly missing here. Potencies come from curve fits of mixed quality, noted in brackets.

Assay: qHTS Assay for Lipid Storage Modulators in Drosophila S3 Cells;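 as to cell number change: cells counted by Cell Tracker Red CMTPX staining in the red channel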
Settings: BODIPY lipid droplet fluorescence, 18-24 h; for cell number change: measured here: cell count max response, cells fed with added oleic acid
Outline: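 Drosophila S3 cells got compounds at several concentrations plus oleic acid (400 uM solution). Laser-scanning cytometry with 488 nm excitation read lipid droplets at 500-530 nm and cells at 575-640 nm. Percent activity was relative to 20 uM Triacsin C.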

[1] = measured here: lipid fluorescence (Fed channel) AC50, cells fed with added oleic acid
[2] = measured here: cell number channel AC50, cells fed with added oleic acid

Q: For `CCOC(=O)c1cc2c(=O)n3cccc(C)c3nc2n(Cc2ccco2)c1=NC(=O)c1cccnc1`, which AC50 [1] is on record?
A: 6.51 µM [rising, single point]

Q: With `Cc1ccc(S(=O)(=O)N2CCC(C(=O)NNC(=O)c3ccccc3)CC2)cc1` as the molecule, how does the cell number change read?
A: 26.4%

Q: Which cell number change does the source give for `Cc1cc(C(=O)N2CCN(Cc3ccc4c(c3)OCO4)CC2)cs1` here?
A: -8.88%

Q: What about the AC50 [1] of the same molecule?
A: 1.16 µM [rising, single point]

Q: Which results are given for `O=C1/C(=C/c2ccc(O)cc2)SC(=S)N1CC1CCCO1` (stereo not given)?
A: cell number change: -24.6%; AC50 [1]: 29.1 µM [falling, single point]

Q: Which results are given for `CN(C)S(=O)(=O)N1CCN(c2ccnc3cc(Cl)ccc23)CC1`?
A: cell number change: -17.8%; AC50 [1]: 16.4 µM [falling, single point]

Q: With `CC(C)C(NC(=O)c1ccccc1F)C(=O)NCc1ccccc1` (stereo not given) as the molecule, how does the cell number change read?
A: -5.65%

Q: What about the AC50 [1] of the same molecule?
A: 0.411 µM [falling, single point]

Q: With `Cn1c(=O)c2c(nc(CN3CCC(C(N)=O)CC3)n2CCc2ccccc2)n(C)c1=O` as the molecule, how does the cell number change read?
A: 7.24%

Q: And the AC50 [1]?
A: 0.731 µM [falling, single point]

Q: For `C=CCNC(=O)c1ccc(-c2ccc([N+](=O)[O-])cc2)o1`, which cell number change is on record?
A: 65.6%

Q: What about the AC50 [2] of the same molecule?
A: 6.51 µM [rising, partial curve]

Q: What about the AC50 [1] of the same molecule?
A: 29.1 µM [rising, single point]

Q: With `O=c1oc2c3c(nn2c2ccccc12)CCCC3` as the molecule, how does the cell number change read?
A: 6.26%

Q: With `Cc1ccc(N2CCN(C(=O)CCc3nc4ccccc4[nH]3)CC2)c(C)c1` as the molecule, how does the cell number change read?
A: -0.832%

Q: And the AC50 [1]?
A: 29.1 µM [falling, single point]

Q: For `C/C(=C\c1ccccc1)C(=O)NCCN1CCOCC1`, which cell number change is on record?
A: -44.8%

Q: With `O=C(c1cccc(S(=O)(=O)N2CCOCC2)c1)N1CCN(S(=O)(=O)c2cccc([N+](=O)[O-])c2)CC1` as the molecule, how does the AC50 [2] read?
A: 5.17 µM [rising, single point]

Q: With `CN1CCC(=NNC(=O)C(=O)Nc2ccc(F)cc2)CC1` as the molecule, how does the cell number change read?
A: 8.1%

Q: For `COC(=O)c1cc(NC(=O)CN(C)Cc2ccccc2)cc(C(=O)OC)c1`, which cell number change is on record?
A: 11.5%

Q: And the AC50 [2]?
A: 6.51 µM [falling, single point]

Q: And the AC50 [1]?
A: 6.51 µM [falling, single point]

Q: With `COc1ccc(-n2nc3c(c2NC(=O)c2ccccc2S(=O)(=O)C(F)F)CS(=O)(=O)C3)cc1` as the molecule, how does the cell number change read?
A: 19.7%

Q: What about the AC50 [1] of the same molecule?
A: 20.6 µM [rising, single point]

Q: Which results are given for `COc1ccc(C(=O)N2CCN(c3c(C)cccc3C)CC2)cc1OC`?
A: cell number change: 4.17%; AC50 [1]: 29.1 µM [rising, partial curve]

Q: Which cell number change does the source give for `CC(=O)N1c2ccc(S(=O)(=O)N3CCCC(C(=O)N4CCCCC4)C3)cc2CC1C` (stereo not given) here?
A: -0.599%

Q: And the AC50 [1]?
A: 0.58 µM [falling, single point]

Q: For `CCNC(=O)COc1ccc(CC)cc1`, which cell number change is on record?
A: 6.9%

Q: And the AC50 [1]?
A: 18.4 µM [falling, single point]

Q: For `Cc1csc(-c2cnn(-c3ccccc3)c2NC(=O)c2ccc(C(F)(F)F)cc2)n1`, which cell number change is on record?
A: -13%

Q: What about the AC50 [1] of the same molecule?
A: 4.61 µM [falling, single point]

Q: Which cell number change does the source give for `O=C(CCSc1ccccc1)NC(=O)COC(=O)C1CCCCC1` here?
A: -63.2%

Q: And the AC50 [2]?
A: 23.1 µM [falling, single point]

Q: And the AC50 [1]?
A: 29.1 µM [falling, single point]

Q: What does the source list for `O=C(CCNC(=O)c1ccc(Cl)cc1)NC1CCCc2ccccc21` (stereo not given)?
A: cell number change: -9.97%; AC50 [2]: 0.146 µM [falling, full curve, poor fit]; AC50 [1]: 2.59 µM [falling, single point]

Q: With `Cc1cc(OC(F)F)ccc1NC(=S)NCCc1ccccc1` as the molecule, how does the cell number change read?
A: -4.46%

Q: And the AC50 [2]?
A: 1.3 µM [rising, partial curve]

Q: Which cell number change does the source give for `O=C(C1COc2ccccc2O1)N1CCn2c(nc3ccccc32)C1` (stereo not given) here?
A: -1.9%

Q: And the AC50 [1]?
A: 0.651 µM [falling, full curve]

Q: For `COc1ccc(C(=O)Oc2coc(CSc3nnc(NC(=O)c4cccs4)s3)cc2=O)cc1`, which cell number change is on record?
A: 14.7%

Q: Which cell number change does the source give for `CCCC1(c2ccccc2)NC(=O)N(CC(=O)Nc2cc(S(=O)(=O)N3CCOCC3)ccc2Cl)C1=O` (stereo not given) here?
A: 1.62%

Q: Which cell number change does the source give for `Cn1c(SCCOc2ccccc2F)nc2ccccc2c1=O` here?
A: 9.13%

Q: With `Cc1ccc(NC(=O)c2ccc(S(=O)(=O)N3CCCC3)cc2)nc1` as the molecule, how does the cell number change read?
A: 10.1%

Q: Which cell number change does the source give for `CCOC(=O)N/N=C/c1c(F)c(F)c(F)c(F)c1F` here?
A: -12%

Q: What about the AC50 [2] of the same molecule?
A: 4.11 µM [falling, single point]

Q: What about the AC50 [1] of the same molecule?
A: 4.61 µM [falling, single point]

Q: For `COc1ccc(OC(C)C(=O)Nc2cccc(OC)c2)cc1` (stereo not given), which AC50 [2] is on record?
A: 6.51 µM [falling, single point]

Q: For `CCC(C)NC(=O)CS(=O)Cc1nc(-c2cccc(OC)c2)oc1C` (stereo not given), which cell number change is on record?
A: -26%

Q: What about the AC50 [1] of the same molecule?
A: 11.6 µM [rising, partial curve, poor fit]

Q: Which cell number change does the source give for `CCN(CC)c1ccc(/C=N/NC(=O)Nc2ccccc2)cc1` here?
A: -39.6%

Q: What about the AC50 [2] of the same molecule?
A: 29.1 µM [falling, single point]

Q: Which results are given for `O=C(c1ccc(Cl)c(S(=O)(=O)N2CCOCC2)c1)N1CCN(c2ccccc2)CC1`?
A: cell number change: -8.67%; AC50 [1]: 0.103 µM [falling, full curve, poor fit]

Q: For `O=C(COC(=O)c1cc(=O)[nH]c2ccccc12)Nc1ccc(Cl)cn1`, which cell number change is on record?
A: 39.9%

Q: And the AC50 [2]?
A: 9.2 µM [rising, partial curve, poor fit]

Q: And the AC50 [1]?
A: 8.2 µM [rising, partial curve, poor fit]

Q: With `O=C1C=C(c2ccc3ccccc3c2)C[C@@H](c2ccc(Cl)cc2)C1` as the molecule, how does the cell number change read?
A: 6.14%

Q: And the AC50 [1]?
A: 0.651 µM [rising, full curve]

Q: What does the source list for `CC(C)N(C(=O)CSc1nnc(Cn2nnc3ccccc32)n1C)C(C)C`?
A: cell number change: -14.3%; AC50 [1]: 18.4 µM [falling, partial curve]

Q: For `CCOC(=O)c1c(-c2ccc(OC)cc2)csc1/N=C/N(C)C`, which AC50 [2] is on record?
A: 2.06 µM [rising, single point]

Q: Which cell number change does the source give for `CCc1ccc(C(=O)COC(=O)c2n[nH]c3ccccc23)cc1` here?
A: 9.63%

Q: For `CN(Cc1ccccc1)C(=O)COC(=O)c1cc(-c2ccc(Cl)s2)nc2ccccc12`, which cell number change is on record?
A: 60.6%

Q: What about the AC50 [2] of the same molecule?
A: 18.4 µM [rising, single point]

Q: And the AC50 [1]?
A: 5.8 µM [rising, full curve]

Q: For `COc1cc(CC(=O)NCCc2ccc(OCc3ccccc3)cc2)c([N+](=O)[O-])cc1OC`, which cell number change is on record?
A: 6.21%

Q: What about the AC50 [2] of the same molecule?
A: 1.64 µM [rising, partial curve, poor fit]

Q: With `CCOc1ccc2nc(SCC(=O)Nc3cc(C)on3)c(C)cc2c1` as the molecule, how does the cell number change read?
A: 10.3%

Q: And the AC50 [1]?
A: 16.4 µM [rising, partial curve]

Q: For `C/C(=N\NC(=O)c1cccc(S(=O)(=O)N2CCCC2)c1)c1ccc(F)cc1`, which AC50 [1] is on record?
A: 2.91 µM [rising, single point]

Q: Which cell number change does the source give for `Cc1ccccc1NC(=O)NCc1ccc2c(c1)OCO2` here?
A: -3.18%

Q: Which results are given for `O=C(c1cc(S(=O)(=O)N2CCCCC2)c(Cl)cc1N1CCOCC1)N1CCOCC1`?
A: cell number change: 37.9%; AC50 [2]: 1.03 µM [rising, partial curve, poor fit]; AC50 [1]: 8.2 µM [rising, partial curve, poor fit]

Q: With `COc1ccc(OC)c(NC(=O)C2=C(C)NC(=O)NC2c2cccs2)c1` (stereo not given) as the molecule, how does the AC50 [2] read?
A: 0.58 µM [rising, single point]

Q: What about the AC50 [1] of the same molecule?
A: 0.651 µM [rising, single point]

Q: With `O=C(NCCC1CCCCN1S(=O)(=O)c1ccccc1)C(=O)Nc1ccccc1` (stereo not given) as the molecule, how does the cell number change read?
A: -25.2%

Q: And the AC50 [1]?
A: 29.1 µM [falling, single point]

Q: For `CCN(CC)S(=O)(=O)c1ccc(C(=O)N2CCc3ccccc32)cc1`, which AC50 [2] is on record?
A: 0.731 µM [falling, single point]

Q: What does the source list for `Cc1noc(C)c1CSc1cc(C)c2ccccc2n1`?
A: cell number change: -22.8%; AC50 [1]: 4.61 µM [rising, full curve, poor fit]

Q: For `CN1C(=O)N(C)C2(c3ccccc3)NNC(N)=NC12c1ccccc1` (stereo not given), which cell number change is on record?
A: 19%

Q: And the AC50 [1]?
A: 0.82 µM [falling, single point]

Q: With `O=C1/C(=C/c2cccs2)Sc2ccccc21` as the molecule, how does the cell number change read?
A: -19.1%

Q: What about the AC50 [1] of the same molecule?
A: 18.4 µM [falling, single point]

Q: Which cell number change does the source give for `Cc1ccc2c(c1)N(CC(=O)NC1CCC(C)CC1)C(=O)CO2` (stereo not given) here?
A: 1.12%

Q: And the AC50 [2]?
A: 0.146 µM [rising, full curve, poor fit]

Q: And the AC50 [1]?
A: 0.82 µM [rising, full curve]

Q: Which cell number change does the source give for `CCN1C(=O)[C@H]2[C@@H](c3ccc(C)cc3)N3C(=O)N(c4cccc(Cl)c4)C(=O)[C@@]3(CC(C)C)[C@H]2C1=O` here?
A: 46.1%

Q: What about the AC50 [2] of the same molecule?
A: 13 µM [rising, single point]

Q: What does the source list for `NS(=O)(=O)c1ccc(NC(=O)CCc2ccccc2)cc1`?
A: cell number change: 13.8%; AC50 [1]: 29.1 µM [rising, single point]

Q: Which cell number change does the source give for `CC(=O)c1cccc(NS(=O)(=O)c2ccc3c(c2)oc(=O)n3C)c1` here?
A: 220%

Q: And the AC50 [2]?
A: 10.3 µM [rising, partial curve]

Q: And the AC50 [1]?
A: 29.1 µM [rising, single point]

Q: With `C=CCNC1=C(Cl)C(=O)N(c2cccc(Cl)c2Cl)C1=O` as the molecule, how does the cell number change read?
A: -14.5%

Q: What about the AC50 [1] of the same molecule?
A: 0.00461 µM [rising, full curve, poor fit]

Q: What does the source list for `O=C(COC(=O)/C=C/c1ccccc1)NC1CC1`?
A: cell number change: 13.3%; AC50 [1]: 16.4 µM [rising, single point]

Q: With `Cc1ccc2c(c1)N(S(=O)(=O)c1cc(-c3onc(C)c3C)ccc1C)CCO2` as the molecule, how does the cell number change read?
A: -5.2%

Q: What does the source list for `COc1ccccc1NS(=O)(=O)c1ccc(C)c(C(=O)NC2=NCCS2)c1`?
A: cell number change: 12.1%; AC50 [1]: 16.4 µM [falling, single point]

Q: For `Cc1cccc(NC(=S)Nc2cccc3ccccc23)c1`, which cell number change is on record?
A: -44.1%

Q: And the AC50 [2]?
A: 0.00517 µM [falling, full curve, poor fit]

Q: What about the AC50 [1] of the same molecule?
A: 6.51 µM [falling, single point]

Q: Which results are given for `O=C(CNc1cccc([N+](=O)[O-])c1)N/N=C/c1ccc([N+](=O)[O-])o1`?
A: cell number change: -55.1%; AC50 [1]: 1.46 µM [falling, partial curve]

Q: With `Cc1ccc(NC(=O)/C(=C\c2ccccc2)NC(=O)/C=C/c2ccccc2)cc1` as the molecule, how does the cell number change read?
A: -13.8%

Q: Which cell number change does the source give for `O=C(OCCOc1cccc(Cl)c1)c1cc(S(=O)(=O)N2CCOCC2)ccc1F` here?
A: -14.9%

Q: And the AC50 [1]?
A: 0.461 µM [rising, partial curve, poor fit]
